No constants are given. Whether binding was seen depends on the method and setting. In cells and extracts the contact can be indirect. These calls come from enrichment with a bait or labelling near it, and not all partners need be listed. Sequences can lack the tags named with a protein.

Protein sequences, listed by entry. Tags and fused reporters are not part of them. Residues count along the entry.
UniProt P19438, residues 30-455: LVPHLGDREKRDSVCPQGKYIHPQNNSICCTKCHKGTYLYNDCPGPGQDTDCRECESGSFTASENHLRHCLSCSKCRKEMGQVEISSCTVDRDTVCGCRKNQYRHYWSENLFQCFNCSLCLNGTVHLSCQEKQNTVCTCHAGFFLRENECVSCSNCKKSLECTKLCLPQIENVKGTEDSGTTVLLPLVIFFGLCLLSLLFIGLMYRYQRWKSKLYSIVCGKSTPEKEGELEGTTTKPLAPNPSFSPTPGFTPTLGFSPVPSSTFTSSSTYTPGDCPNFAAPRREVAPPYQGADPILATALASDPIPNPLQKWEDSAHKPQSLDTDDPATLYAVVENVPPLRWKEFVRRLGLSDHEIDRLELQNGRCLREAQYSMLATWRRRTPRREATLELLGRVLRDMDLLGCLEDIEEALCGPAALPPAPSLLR

This assay concerns the target GFP-TNFR1 (UniProt P19438). The assay can be described thus: affinity purification with mass spectrometry; GFP-TNFR1-overexpressing Huh7 cell lysates precipitated with magnetic beads conjugated with GFP; within 2 h of TNF-α stimulation; mass spectrometry.

B1: HRG (histidine-rich glycoprotein), found by mass spectrometry in the GFP-TNFR1 precipitate (protein, UniProt P04196 19-525)
chain: VSPTDCSAVEPEAEKALDLINKRRRDGYLFQLLRIADAHLDRVENTTVYYLVLDVQESDCSVLSRKYWNDCEPPDSRRPSEIVIGQCKVIATRHSHESQDLRVIDFNCTTSSVSSALANTKDSPVLIDFFEDTERYRKQANKALEKYKEENDDFASFRVDRIERVARVRGGEGTGYFVDFSVRNCPRHHFPRHPNVFGFCRADLFYDVEALDLESPKNLVINCEVFDPQEHENINGVPPHLGHPFHWGGHERSSTTKPPFKPHGSRDHHHPHKPHEHGPPPPPDERDHSHGPPLPQGPPPLLPMSCSSCQHATFGTNGAQRHSHNNNSSDLHPHKHHSHEQHPHGHHPHAHHPHEHDTHRQHPHGHHPHGHHPHGHHPHGHHPHGHHPHCHDFQDYGPCDPPPHNQGHCCHGHGPPPGHLRRRGPGKGPRPFHCRQIGSVYRLPPLRKGEVLPLPEANFPSFPLPHHKHPLKPDNQPFPQSVSESCPGKFKSGFPQVSMFFTHTFPK
Take B1: the binding entry is recorded as “binds”.

These data come from PMC7482824.
